Data published in patent publication US10858384B2, “Synthetic molecule constructs” (KODE BIOTECH LIMITED, priority 2004, dated 2020).
At least one compound was matched to its structure with a doubt left.

What was measured:
embryos = assay: Embryo modification, test for insertion by fluorescence; format: cell-based; conditions: 1° antibody Anti-A Bioclone
Protocol: The embryo zona pellucida was removed by treating embryos with 0.5% pronase in a 37° C. oven for 6 minutes or until all zonas were removed. Micro-drops were prepared by adding 5 μl of synthetic glycolipid Atri-sp-Ad-DOPE (I) or Btri-sp-Ad-DOPE (VI), at a concentration of 1 mg/mL to a 45 μl drop of M2 media overlaid with mineral oil. All embryo groups were incubated in the 50 μl micro-drops for 1 hour at 37° C. Embryos from experimental and control groups were washed 3× with M2 media.
Embryos from experimental and control groups were placed into a micro-drop of corresponding antibody and incubated for 30 min at 37° C. Embryos from experimental and control groups were washed 3× with M2 media.
Embryos from all experimental and control groups were placed into micro-drops of anti-mouse Ig FITC (1:50 dilution anti-mouse Ig FITC in M2) and incubated for 30 min at 37° C. Embryos from experimental and control groups were washed 3× with M2 media. Embryos were mounted on microscope slides in a 5 μl drop of M2 and the drops overlaid with oil.
The slides were viewed under a fluorescence microscope.

O RBCs = assay: Agglutination of transformed cells stored at 4° C. or 37° C.; format: cell-based, human; conditions: Syn-A, 0.1 mg/mL

SMILES: CCCCCCCC/C=C\CCCCCCCC(=O)OC[C@H](COP(=O)(O)OCCNC(=O)CCCCC(=O)NCCCO[C@@H]1O[C@H](CO)[C@H](O)[C@H](O[C@H]2O[C@H](CO)[C@H](O)[C@H](O)[C@H]2NC(C)=O)[C@H]1O[C@@H]1O[C@@H](C)[C@@H](O)[C@@H](O)[C@@H]1O)OC(=O)CCCCCCC/C=C\CCCCCCCC [Atri-sp-Ad-DOPE (I)]
- Fluorescence score after incubation with IgFITC Probe (embryos; Embryos): 2+/1+
- Fluorescence score after incubation with IgFITC Probe (embryos; embryos, inserted antigen 1 mg/mL, 1 hour at 37° C., anti-mouse Ig FITC 1:50): 2+
- Agglutination of stored transformed cells (O RBCs; 0 hours, Tube): 3+
- Agglutination of stored transformed cells (O RBCs; 20 hours, Column, 4° C.): 4+
- Agglutination of stored transformed cells (O RBCs; 20 hours, Column, 37° C.): 4+
- Agglutination of stored transformed cells (O RBCs; 44 hours, Column, 4° C.): 4+
- Agglutination of stored transformed cells (O RBCs; 44 hours, Column, 37° C.): 4+
